Results: article PMC12668627

The chains behind the UniProt entries cited, without tags or fusion partners.
UniProt Q13485: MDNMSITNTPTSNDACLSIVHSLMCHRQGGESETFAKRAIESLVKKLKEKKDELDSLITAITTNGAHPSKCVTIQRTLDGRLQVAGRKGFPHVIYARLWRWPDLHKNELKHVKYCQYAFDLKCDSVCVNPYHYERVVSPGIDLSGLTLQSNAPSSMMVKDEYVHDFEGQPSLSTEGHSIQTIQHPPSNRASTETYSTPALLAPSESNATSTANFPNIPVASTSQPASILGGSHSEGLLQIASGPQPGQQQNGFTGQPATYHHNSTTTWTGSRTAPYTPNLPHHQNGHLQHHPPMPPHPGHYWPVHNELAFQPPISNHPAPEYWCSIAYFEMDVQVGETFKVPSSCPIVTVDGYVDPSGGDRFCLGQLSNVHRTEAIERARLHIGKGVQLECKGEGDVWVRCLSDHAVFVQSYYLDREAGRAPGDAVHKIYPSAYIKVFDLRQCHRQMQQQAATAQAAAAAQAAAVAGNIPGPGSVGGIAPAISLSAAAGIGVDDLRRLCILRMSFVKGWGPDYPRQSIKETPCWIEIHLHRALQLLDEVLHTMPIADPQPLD
UniProt P35222: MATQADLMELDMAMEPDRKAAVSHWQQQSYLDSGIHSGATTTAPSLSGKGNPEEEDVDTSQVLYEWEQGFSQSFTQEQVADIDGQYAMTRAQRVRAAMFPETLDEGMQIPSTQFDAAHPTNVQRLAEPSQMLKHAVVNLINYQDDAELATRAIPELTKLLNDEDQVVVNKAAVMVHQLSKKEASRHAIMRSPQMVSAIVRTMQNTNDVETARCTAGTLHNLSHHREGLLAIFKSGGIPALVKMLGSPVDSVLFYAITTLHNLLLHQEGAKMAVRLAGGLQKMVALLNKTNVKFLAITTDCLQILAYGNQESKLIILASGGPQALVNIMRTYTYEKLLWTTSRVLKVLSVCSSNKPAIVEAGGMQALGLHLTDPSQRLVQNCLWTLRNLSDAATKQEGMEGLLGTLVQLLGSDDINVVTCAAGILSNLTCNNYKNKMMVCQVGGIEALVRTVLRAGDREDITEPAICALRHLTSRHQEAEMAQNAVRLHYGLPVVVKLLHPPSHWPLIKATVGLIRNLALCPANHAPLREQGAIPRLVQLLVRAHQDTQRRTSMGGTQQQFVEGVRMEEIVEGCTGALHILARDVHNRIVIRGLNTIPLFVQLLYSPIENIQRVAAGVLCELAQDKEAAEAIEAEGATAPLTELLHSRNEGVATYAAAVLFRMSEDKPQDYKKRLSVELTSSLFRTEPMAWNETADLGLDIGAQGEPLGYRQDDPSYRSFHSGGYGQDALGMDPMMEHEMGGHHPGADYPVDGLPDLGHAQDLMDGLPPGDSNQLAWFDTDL
UniProt Q8IUD2: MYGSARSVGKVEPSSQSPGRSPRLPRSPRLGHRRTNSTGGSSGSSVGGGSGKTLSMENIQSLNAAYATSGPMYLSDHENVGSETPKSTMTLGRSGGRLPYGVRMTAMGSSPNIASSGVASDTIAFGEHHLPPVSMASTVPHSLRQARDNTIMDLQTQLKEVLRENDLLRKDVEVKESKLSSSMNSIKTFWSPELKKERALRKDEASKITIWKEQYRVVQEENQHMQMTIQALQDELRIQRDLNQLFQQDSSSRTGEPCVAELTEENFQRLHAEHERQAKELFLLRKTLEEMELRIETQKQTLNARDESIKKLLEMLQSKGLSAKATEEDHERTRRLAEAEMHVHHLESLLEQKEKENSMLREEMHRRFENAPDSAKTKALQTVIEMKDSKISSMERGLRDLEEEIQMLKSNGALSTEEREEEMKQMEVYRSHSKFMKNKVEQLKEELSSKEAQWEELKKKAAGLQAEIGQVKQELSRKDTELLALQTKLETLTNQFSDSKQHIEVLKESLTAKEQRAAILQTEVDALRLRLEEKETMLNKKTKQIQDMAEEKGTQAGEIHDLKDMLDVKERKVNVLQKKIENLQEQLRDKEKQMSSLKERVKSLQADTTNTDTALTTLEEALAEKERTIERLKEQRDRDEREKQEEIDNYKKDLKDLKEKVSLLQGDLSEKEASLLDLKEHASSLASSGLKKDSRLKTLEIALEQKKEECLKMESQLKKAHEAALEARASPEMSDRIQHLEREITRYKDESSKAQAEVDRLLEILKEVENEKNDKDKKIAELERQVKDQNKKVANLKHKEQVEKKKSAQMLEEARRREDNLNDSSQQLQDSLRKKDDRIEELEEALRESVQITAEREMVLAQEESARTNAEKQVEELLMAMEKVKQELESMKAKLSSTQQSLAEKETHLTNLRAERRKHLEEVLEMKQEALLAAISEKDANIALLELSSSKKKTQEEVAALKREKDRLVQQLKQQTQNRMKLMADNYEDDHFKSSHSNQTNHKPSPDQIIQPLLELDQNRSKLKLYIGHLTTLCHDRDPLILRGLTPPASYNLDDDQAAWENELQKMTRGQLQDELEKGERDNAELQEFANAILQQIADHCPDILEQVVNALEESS
UniProt Q93009: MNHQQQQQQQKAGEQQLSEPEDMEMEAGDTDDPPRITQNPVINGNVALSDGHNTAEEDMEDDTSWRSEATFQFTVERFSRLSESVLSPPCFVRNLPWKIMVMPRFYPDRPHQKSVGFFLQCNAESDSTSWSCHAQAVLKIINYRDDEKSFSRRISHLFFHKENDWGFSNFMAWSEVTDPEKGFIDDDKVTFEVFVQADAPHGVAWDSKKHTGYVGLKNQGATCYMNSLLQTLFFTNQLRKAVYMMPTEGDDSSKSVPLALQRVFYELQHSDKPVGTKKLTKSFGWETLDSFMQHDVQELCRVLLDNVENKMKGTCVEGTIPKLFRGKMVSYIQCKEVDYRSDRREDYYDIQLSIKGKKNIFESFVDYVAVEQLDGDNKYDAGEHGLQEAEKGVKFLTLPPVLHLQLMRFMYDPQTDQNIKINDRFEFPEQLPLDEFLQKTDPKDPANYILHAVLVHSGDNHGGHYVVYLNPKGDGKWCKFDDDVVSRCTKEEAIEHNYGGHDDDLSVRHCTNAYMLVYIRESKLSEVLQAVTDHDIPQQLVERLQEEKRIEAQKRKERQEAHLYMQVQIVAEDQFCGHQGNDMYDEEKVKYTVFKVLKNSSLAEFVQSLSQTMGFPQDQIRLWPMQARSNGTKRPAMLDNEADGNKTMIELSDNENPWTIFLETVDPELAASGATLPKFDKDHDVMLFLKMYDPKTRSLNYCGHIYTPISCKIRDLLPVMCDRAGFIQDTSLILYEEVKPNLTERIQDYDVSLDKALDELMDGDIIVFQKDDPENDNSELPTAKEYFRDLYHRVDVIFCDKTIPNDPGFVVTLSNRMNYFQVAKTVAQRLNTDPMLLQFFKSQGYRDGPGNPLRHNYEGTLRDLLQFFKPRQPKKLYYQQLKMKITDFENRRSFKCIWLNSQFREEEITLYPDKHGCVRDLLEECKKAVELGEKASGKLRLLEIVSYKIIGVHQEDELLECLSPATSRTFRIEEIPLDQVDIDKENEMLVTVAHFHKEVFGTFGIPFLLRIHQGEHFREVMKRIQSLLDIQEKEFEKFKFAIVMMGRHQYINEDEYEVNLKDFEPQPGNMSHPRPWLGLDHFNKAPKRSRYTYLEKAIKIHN
UniProt Q5VTR2: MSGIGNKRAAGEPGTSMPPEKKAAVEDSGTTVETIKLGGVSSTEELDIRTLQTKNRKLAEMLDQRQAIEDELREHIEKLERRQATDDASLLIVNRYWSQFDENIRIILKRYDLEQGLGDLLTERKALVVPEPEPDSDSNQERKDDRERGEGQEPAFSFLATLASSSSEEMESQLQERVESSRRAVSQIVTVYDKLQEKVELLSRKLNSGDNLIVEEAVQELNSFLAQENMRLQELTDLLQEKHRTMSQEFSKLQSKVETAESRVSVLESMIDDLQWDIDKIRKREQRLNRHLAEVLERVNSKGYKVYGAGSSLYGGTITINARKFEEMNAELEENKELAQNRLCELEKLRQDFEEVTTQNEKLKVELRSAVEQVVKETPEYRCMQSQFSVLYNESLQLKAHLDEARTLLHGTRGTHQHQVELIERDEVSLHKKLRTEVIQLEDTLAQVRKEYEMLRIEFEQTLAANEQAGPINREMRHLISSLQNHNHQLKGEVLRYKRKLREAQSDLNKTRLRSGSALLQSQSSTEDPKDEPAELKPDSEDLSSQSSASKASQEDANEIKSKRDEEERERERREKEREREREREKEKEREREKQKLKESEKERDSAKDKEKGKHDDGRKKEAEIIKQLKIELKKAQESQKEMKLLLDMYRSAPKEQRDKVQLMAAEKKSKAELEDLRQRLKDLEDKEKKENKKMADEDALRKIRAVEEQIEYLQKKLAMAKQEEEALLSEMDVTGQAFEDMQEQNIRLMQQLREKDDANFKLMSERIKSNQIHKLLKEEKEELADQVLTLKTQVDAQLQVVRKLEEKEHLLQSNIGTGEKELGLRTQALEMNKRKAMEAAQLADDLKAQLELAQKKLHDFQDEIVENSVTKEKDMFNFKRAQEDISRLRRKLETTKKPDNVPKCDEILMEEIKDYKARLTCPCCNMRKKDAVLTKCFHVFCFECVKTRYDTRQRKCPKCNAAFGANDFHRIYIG
UniProt Q9UPN9: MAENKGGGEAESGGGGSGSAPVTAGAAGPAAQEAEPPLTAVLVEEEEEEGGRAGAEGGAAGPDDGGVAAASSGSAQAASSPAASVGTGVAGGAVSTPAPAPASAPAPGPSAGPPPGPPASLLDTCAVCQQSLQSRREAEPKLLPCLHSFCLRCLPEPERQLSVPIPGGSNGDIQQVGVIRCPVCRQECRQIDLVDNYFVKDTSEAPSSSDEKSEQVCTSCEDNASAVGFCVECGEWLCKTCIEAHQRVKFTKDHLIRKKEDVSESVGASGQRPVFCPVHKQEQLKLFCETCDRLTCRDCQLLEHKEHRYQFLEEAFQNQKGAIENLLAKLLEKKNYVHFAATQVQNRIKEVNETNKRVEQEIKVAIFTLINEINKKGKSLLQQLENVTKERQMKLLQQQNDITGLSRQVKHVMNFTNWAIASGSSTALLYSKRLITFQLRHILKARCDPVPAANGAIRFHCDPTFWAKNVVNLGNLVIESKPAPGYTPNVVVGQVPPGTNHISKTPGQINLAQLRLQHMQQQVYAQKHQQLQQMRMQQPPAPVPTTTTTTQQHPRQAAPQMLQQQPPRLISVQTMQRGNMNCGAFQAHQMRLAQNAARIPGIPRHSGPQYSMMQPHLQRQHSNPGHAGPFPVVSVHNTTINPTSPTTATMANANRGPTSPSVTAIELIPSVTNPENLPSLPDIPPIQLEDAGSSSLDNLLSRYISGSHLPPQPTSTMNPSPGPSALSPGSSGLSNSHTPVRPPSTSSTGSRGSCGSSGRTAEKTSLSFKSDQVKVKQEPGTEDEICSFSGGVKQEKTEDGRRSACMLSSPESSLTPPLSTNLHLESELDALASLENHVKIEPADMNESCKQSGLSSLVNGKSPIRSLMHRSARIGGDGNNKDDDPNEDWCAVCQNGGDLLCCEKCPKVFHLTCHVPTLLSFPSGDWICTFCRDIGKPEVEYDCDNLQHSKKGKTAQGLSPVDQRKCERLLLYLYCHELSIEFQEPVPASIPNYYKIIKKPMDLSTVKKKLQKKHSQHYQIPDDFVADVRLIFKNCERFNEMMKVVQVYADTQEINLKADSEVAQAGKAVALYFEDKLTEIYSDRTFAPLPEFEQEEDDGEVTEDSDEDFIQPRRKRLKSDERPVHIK
UniProt P35221: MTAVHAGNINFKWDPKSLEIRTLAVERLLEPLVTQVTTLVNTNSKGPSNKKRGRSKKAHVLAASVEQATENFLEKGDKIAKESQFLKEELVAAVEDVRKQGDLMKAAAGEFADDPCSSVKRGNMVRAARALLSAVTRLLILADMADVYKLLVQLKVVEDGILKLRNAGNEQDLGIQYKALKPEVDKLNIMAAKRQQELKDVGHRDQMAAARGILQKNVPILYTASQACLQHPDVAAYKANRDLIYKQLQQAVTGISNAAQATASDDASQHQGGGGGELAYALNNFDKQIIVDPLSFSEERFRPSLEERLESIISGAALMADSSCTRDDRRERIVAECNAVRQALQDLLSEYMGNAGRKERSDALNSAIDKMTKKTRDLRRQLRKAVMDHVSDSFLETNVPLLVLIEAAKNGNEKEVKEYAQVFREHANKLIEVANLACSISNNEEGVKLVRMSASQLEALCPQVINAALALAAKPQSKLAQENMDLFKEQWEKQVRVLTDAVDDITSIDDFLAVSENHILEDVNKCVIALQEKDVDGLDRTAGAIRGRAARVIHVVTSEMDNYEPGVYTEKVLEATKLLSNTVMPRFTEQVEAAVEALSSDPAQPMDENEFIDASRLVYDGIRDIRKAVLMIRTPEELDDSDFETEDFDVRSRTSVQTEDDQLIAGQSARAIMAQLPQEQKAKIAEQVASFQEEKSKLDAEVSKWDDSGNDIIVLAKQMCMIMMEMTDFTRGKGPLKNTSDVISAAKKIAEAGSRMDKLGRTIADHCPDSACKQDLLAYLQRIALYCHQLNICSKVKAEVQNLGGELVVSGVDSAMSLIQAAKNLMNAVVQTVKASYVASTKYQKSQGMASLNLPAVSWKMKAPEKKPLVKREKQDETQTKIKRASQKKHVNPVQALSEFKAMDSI

How the values were obtained:
[1] = target: SMAD4-PafA-Myc (UniProt Q13485); assay: proximity labelling; PUP-IT: HEK293T cells stably expressing 3 × Flag-TbN-PupE transfected with bait-PafA-Myc (prey endogenous or co-transfected); RIPA lysate, anti-Flag immunoprecipitation, immunoblot of the prey; molecular weight laddering as read-out
[2] = target: β-catenin-PafA-Myc (human) (UniProt P35222); assay: as above
[3] = target: SMAD4-PafA-Myc (UniProt Q13485); assay: proximity labelling; STUPPIT approach I: HEK293T cells stably expressing 3 × Flag-TbN-PupE co-transfected with preyA-PafA-Myc and HA-TbC-preyC; streptavidin pulldown of biotinylated proteins, immunoblot
[4] = target: HA-TbC-β-catenin (human) (UniProt P35222); assay: as above

binding [1] | binding [2] | binding [3] | binding [4] | Substance
binds | binds | – | – | HA-ERC1 (from UniProt Q8IUD2 1-1116)
binds | – | – | – | HA-USP7 (from UniProt Q93009 1-1102)
no binding | binds | – | – | RNF20-HA (from UniProt Q5VTR2 1-975)
– | – | binds | binds | TRIM33 (expression construct) (from UniProt Q9UPN9 1-1127)
– | – | – | binds | α-catenin-V5 (from UniProt P35221 1-906)

Results are given in words; binding and its absence hold for the method and conditions named. Binding seen in cells or lysates may run through a third protein. Here binding means that the protein was enriched with, or labelled near, the bait; the list need not be complete. For some assays here: No binding means not detected with the bait.
